The values below come from PMC6689043.

Positions count from the first letter of the chain named. Numbers in names are those of the source. No constants are given. Whether binding was seen depends on the method and setting. Binding seen in cells or lysates may run through a third protein. Some binding calls cover weakened binding; strength is not graded here.

B1: abscisic acid responsive element-binding factor 3 (ABF3) (protein, UniProt Q9M7Q3 1-454)
chain: MGSRLNFKSFVDGVSEQQPTVGTSLPLTRQNSVFSLTFDEFQNSWGGGIGKDFGSMNMDELLKNIWTAEESHSMMGNNTSYTNISNGNSGNTVINGGGNNIGGLAVGVGGESGGFFTGGSLQRQGSLTLPRTISQKRVDDVWKELMKEDDIGNGVVNGGTSGIPQRQQTLGEMTLEEFLVRAGVVREEPQPVESVTNFNGGFYGFGSNGGLGTASNGFVANQPQDLSGNGVAVRQDLLTAQTQPLQMQQPQMVQQPQMVQQPQQLIQTQERPFPKQTTIAFSNTVDVVNRSQPATQCQEVKPSILGIHNHPMNNNLLQAVDFKTGVTVAAVSPGSQMSPDLTPKSALDASLSPVPYMFGRVRKTGAVLEKVIERRQKRMIKNRESAARSRARKQAYTMELEAEIAQLKELNEELQKKQVEIMEKQKNQLLEPLRQPWGMGCKRQCLRRTLTGPW
B2: mutated ABF3 (T451A) (protein, UniProt Q9M7Q3 1-454)
chain: B1 chain with T451A
B3: ACS7 (protein, UniProt Q9STR4 1-447)
chain: MGLPLMMERSSNNNNVELSRVAVSDTHGEDSPYFAGWKAYDENPYDESHNPSGVIQMGLAENQVSFDLLETYLEKKNPEGSMWGSKGAPGFRENALFQDYHGLKTFRQAMASFMEQIRGGKARFDPDRIVLTAGATAANELLTFILADPNDALLVPTPYYPGFDRDLRWRTGVKIVPIHCDSSNHFQITPEALESAYQTARDANIRVRGVLITNPSNPLGATVQKKVLEDLLDFCVRKNIHLVSDEIYSGSVFHASEFTSVAEIVENIDDVSVKERVHIVYSLSKDLGLPGFRVGTIYSYNDNVVRTARRMSSFTLVSSQTQHMLASMLSDEEFTEKYIRINRERLRRRYDTIVEGLKKAGIECLKGNAGLFCWMNLGFLLEKKTKDGELQLWDVILKELNLNISPGSSCHCSEVGWFRVCFANMSENTLEIALKRIHEFMDRRRRF
B4: Di19-2 (protein, UniProt Q8GWK1 1-221)
chain: MEDDMWCVSSSGSSRSYRSETAAKYQSGPYQDLEEFEEVDDDIAVEYPCPFCASDYDLVELCHHIDEEHRHEANNGICPVCSKRVKMHMVDHITSHHRDVLKSEQKEMSYREDPYLSDKYLQPHLDELPPSMNHHQHPSKHVSDQFLSFINNSALPNQTKLVLPDSSVEDKNPIKDSSAAKEGTSSCPLSDSDKLEKAKKCEFVQGLLSSAMFDDECDSSE

This experiment addresses T1, 14-3-3ω (Arabidopsis thaliana) (UniProt Q01525).
T1 sequence: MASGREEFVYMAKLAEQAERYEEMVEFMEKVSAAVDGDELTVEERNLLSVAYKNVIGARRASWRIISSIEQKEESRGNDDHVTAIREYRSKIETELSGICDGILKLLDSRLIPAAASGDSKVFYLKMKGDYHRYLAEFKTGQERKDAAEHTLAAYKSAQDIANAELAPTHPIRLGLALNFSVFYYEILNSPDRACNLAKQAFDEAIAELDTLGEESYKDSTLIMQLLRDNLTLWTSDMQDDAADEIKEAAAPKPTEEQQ
Put plainly: split reporter; BiFC with YN and YC fragments of YFP; paired plasmids (10 ug) transfected into Arabidopsis leaf protoplasts with polyethylene glycol; YFP fluorescence by confocal microscopy after 12-16 h; both combinations of the YFP halves.
In the case of B1, the binding result is listed as “binds”.
Regarding B2, the binding result is reported as “no binding”.
As for B3, the binding result was “binds”.
In the case of B4, the binding entry is “binds”.
